Results reported in paper PMC7070575, “Novel Blood–Brain Barrier Shuttle Peptides Discovered through the Phage Display Method” (Molecules, 2020).
The amount applied is not stated for every result.

tested on: primary rat brain endothelial cells; assay: Phage display bio-panning on primary rat brain endothelial cells (after subtraction on SH-SY5Y); type: cell-based; conditions: occurrence among 35 phage clones randomly chosen and sequenced after the fourth round of bio-panning; Ph.D.-12 library

| Sequence | Frequency |
| --- | --- |
| APTAYNKNDWAL [1.7] | 1/35 |
| AYPQKFNNNFMS [1.5] | 1/35 |
| GSWGLNDSSAAY [1.11] | 2/35 |
| HAEHSQVRGAAN [1.4] | 1/35 |
| HASGSISGFWPN [1.12] | 1/35 |
| IDLRPKDDLPQP [1.9] | 2/35 |
| IEASFYDAPRGG [1.10] | 1/35 |
| IGVRGCIWDPQP [1.1] | 1/35 |
| LNTNSQLQTNNA [1.14] | 2/35 |
| NRPDSAQFWLHH [1.8] | 1/35 |
| VIGPLDRHAHLK [1.6] | 2/35 |
| VNMVPIGGNQVV [1.13] | 1/35 |
